Source: patent US20230133580A1, “MENTHOL-CONTAINING COMPOSITION” (SUNSHO PHARMACEUTICAL CO., LTD., priority 2020, published 2023)

Test: Odor comparison test B

Row | SMILES | Rating (l-Menthol 50, solvent 50 pbw) | Rating (l-Menthol 60, solvent 40 pbw) | Rating (l-Menthol 70, solvent 30 pbw) | Rating (l-Menthol 80, solvent 20 pbw)
1 | CC(=O)OCCCCCCOC(C)=O [1,6-Diacetoxyhexane] | D (when the average score is 2 points or more but less than 3 points, the sample is rated D) | C (when the average score is 3 points or more but less than 3.5 points, the sample is rated C) | – | –
2 | CC(=O)OCCCCCCCCOC(C)=O [1,8-Diacetoxyoctane] | – | – | D (when the average score is 2 points or more but less than 3 points, the sample is rated D) | –
3 | OCc1ccccc1 [Benzyl alcohol] | – | – | – | E (when the average score is less than 2 points, the sample is rated E)
4 | CCOC(=O)/C=C/C(=O)OCC [Diethyl fumarate] | E (when the average score is less than 2 points, the sample is rated E) | E (when the average score is less than 2 points, the sample is rated E) | D (when the average score is 2 points or more but less than 3 points, the sample is rated D) | –
5 | CCOC(=O)CCCCCCCCC(=O)OCC [Diethyl sebacate] | – | A (when the average score is 4 points or more, the sample is rated A) | A (when the average score is 4 points or more, the sample is rated A) | –
6 | CCOC(=O)CCC(=O)OCC [Diethyl succinate] | A (when the average score is 4 points or more, the sample is rated A) | – | – | –
7 | CCCCOCCOCCOCCCC [Diethylene glycol dibutyl ether] | D (when the average score is 2 points or more but less than 3 points, the sample is rated D) | D (when the average score is 2 points or more but less than 3 points, the sample is rated D) | D (when the average score is 2 points or more but less than 3 points, the sample is rated D) | –
8 | CC(C)COC(=O)CCCCC(=O)OCC(C)C [Diisobutyl adipate] | B (when the average score is 3.5 points or more but less than 4 points, the sample is rated B) | – | – | –
9 | CCCCCCCCCCCCCCCC(=O)OCC [Ethyl palmitate] | C (when the average score is 3 points or more but less than 3.5 points, the sample is rated C) | – | B (when the average score is 3.5 points or more but less than 4 points, the sample is rated B) | –
10 | C=C(C)[C@H]1CC=C(C)CC1 [d-Limonene, reference compound] | – | – | – | D (when the average score is 2 points or more but less than 3 points, the sample is rated D)

Counter-ions that a name gives are not always drawn. Some compounds share one wording; it may come from a single statement.
